In paper PMC3093395:
No constants are given. Whether binding was seen depends on the method and setting. Binding seen in cells or lysates may run through a third protein. Some results given as binding are weak or reduced against the parent protein; the word gives no strength.

Chains of the proteins cited; added tags and fusions are not shown.
UniProt Q9CW03: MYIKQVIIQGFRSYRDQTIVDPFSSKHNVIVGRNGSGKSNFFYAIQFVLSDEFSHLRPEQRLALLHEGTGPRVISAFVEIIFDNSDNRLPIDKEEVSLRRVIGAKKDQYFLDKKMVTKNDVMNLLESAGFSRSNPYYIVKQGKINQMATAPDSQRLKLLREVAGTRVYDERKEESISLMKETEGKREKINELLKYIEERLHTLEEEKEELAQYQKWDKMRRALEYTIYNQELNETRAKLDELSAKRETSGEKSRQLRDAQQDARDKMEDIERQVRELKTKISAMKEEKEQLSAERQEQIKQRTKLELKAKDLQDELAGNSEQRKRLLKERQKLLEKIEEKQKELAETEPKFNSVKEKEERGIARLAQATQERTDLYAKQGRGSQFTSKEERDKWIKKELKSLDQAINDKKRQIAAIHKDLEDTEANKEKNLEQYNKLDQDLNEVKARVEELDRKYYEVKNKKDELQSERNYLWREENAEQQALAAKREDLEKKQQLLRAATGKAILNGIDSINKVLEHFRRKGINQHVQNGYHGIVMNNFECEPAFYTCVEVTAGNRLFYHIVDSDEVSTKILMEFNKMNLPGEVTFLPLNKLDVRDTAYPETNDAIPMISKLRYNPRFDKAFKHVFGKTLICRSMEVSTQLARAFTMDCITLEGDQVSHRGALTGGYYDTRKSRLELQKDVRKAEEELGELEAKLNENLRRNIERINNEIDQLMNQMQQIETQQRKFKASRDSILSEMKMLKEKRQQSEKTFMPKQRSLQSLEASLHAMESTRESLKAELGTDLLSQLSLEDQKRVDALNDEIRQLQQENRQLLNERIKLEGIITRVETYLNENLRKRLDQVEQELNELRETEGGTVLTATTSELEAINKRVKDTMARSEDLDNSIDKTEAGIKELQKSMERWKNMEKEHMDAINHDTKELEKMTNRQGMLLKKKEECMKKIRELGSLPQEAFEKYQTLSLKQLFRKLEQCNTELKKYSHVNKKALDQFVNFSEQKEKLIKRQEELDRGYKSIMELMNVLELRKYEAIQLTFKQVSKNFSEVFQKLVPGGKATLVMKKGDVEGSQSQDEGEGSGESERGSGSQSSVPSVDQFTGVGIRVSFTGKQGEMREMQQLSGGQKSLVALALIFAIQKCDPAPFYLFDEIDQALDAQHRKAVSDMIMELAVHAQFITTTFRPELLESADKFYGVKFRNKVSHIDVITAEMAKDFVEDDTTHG

Target: T1, RAD21-LAP (mouse (BAC transgene in mouse R1/E ESC)) (UniProt Q61550)
T1 sequence: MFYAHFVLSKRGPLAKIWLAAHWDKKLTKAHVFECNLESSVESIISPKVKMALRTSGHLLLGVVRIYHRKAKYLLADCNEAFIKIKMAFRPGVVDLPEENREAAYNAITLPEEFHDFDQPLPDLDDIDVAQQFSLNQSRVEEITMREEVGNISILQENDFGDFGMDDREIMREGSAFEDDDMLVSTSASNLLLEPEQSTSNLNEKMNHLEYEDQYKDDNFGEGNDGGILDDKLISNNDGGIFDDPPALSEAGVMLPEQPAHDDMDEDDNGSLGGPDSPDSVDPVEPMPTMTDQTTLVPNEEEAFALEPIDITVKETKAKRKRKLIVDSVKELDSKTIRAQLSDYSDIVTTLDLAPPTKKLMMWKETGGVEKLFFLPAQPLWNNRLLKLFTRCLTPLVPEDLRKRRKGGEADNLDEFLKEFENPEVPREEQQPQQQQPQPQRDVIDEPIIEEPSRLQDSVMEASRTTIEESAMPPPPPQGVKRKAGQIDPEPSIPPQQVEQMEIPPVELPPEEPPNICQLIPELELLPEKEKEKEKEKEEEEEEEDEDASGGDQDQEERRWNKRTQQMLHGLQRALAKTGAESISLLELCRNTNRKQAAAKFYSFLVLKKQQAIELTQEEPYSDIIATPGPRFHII
Assay: co-IP; RAD21-LAP immunoprecipitation from RAD21 BAC-GFP ESC with a GFP antibody; Western blot

- binding: binds
Substance: SMC3 (from UniProt Q9CW03 1-1217)
